Reference: the supplement of paper PMC12067093, “Discovery and optimisation of a covalent ligand for TRIM25 and its application to targeted protein ubiquitination” (Chemical Science, 2025)
The list shows a part of the results.

By UniProt entry, the sequences of proteins in these tests, tags left out. Where a name states a change or a piece, a line headed by the entry shows the natural chain unless it says otherwise.
UniProt Q9BUA3: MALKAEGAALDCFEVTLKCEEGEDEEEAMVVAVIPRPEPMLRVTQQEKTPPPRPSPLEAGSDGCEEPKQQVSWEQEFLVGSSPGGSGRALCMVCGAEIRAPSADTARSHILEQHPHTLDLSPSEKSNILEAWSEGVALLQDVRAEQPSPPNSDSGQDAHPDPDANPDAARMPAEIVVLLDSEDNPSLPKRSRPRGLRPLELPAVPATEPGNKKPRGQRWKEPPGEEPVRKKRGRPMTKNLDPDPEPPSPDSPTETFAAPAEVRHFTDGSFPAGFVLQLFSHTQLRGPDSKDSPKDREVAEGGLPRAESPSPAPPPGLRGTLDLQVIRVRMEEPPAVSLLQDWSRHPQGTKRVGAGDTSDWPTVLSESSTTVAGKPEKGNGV
UniProt Q9Y5X3: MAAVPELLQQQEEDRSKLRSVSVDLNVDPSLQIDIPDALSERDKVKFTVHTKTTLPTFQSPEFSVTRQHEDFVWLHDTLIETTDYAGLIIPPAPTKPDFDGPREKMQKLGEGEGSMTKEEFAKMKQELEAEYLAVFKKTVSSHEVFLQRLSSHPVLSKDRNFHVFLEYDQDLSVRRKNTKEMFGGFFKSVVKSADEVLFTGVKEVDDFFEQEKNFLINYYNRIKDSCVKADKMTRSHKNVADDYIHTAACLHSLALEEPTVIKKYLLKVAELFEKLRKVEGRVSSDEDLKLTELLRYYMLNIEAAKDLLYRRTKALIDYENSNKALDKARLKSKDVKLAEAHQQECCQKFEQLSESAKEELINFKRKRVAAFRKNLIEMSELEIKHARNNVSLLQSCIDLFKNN
UniProt O76094: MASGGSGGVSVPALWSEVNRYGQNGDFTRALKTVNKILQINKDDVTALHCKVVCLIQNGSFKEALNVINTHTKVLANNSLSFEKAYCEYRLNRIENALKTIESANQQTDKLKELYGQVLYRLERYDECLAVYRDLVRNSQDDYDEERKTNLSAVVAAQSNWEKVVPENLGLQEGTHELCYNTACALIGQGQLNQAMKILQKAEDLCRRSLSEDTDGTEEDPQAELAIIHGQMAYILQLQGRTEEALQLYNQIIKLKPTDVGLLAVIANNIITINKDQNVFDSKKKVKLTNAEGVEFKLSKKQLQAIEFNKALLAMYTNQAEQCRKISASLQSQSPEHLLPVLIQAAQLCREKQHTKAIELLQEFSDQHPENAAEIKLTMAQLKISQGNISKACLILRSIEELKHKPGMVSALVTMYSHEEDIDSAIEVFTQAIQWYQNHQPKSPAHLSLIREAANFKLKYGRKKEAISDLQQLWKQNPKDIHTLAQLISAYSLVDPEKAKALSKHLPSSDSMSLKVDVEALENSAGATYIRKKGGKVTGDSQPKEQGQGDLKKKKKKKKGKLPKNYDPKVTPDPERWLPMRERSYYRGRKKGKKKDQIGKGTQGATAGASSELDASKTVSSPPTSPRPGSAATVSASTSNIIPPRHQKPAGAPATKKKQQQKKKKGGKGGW
UniProt O60493, whole entry, looked up: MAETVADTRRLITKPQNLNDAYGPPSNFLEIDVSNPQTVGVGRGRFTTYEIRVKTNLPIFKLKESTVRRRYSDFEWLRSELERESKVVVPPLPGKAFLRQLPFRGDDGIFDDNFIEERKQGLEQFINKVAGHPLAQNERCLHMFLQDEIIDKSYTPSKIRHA
UniProt Q8NB90: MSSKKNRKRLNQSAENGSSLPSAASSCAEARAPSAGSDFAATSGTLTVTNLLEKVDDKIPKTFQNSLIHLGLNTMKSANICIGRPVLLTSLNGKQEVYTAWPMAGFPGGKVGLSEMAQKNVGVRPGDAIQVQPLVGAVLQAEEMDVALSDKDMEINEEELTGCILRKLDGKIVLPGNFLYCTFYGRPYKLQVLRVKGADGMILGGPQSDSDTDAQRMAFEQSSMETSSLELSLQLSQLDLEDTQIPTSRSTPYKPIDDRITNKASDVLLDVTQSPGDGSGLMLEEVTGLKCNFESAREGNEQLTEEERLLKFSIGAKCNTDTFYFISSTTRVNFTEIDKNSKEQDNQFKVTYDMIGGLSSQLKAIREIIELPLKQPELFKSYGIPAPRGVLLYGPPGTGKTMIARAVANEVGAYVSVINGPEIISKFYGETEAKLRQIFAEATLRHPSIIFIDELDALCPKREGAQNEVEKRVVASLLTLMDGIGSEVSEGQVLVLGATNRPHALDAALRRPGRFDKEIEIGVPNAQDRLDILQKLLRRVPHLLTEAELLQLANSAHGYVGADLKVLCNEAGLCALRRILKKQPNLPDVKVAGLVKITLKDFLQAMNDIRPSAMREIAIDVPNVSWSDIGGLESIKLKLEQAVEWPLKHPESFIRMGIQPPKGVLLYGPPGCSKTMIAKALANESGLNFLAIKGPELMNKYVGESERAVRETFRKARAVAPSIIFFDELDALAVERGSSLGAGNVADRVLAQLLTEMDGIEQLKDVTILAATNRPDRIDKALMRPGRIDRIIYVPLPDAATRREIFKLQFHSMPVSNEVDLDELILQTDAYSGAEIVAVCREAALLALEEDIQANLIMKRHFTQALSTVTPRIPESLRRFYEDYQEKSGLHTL
UniProt P55769: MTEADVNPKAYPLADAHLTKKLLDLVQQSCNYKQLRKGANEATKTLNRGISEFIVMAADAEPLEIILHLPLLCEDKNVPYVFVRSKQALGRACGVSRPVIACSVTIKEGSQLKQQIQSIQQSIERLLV
UniProt Q9UNH7: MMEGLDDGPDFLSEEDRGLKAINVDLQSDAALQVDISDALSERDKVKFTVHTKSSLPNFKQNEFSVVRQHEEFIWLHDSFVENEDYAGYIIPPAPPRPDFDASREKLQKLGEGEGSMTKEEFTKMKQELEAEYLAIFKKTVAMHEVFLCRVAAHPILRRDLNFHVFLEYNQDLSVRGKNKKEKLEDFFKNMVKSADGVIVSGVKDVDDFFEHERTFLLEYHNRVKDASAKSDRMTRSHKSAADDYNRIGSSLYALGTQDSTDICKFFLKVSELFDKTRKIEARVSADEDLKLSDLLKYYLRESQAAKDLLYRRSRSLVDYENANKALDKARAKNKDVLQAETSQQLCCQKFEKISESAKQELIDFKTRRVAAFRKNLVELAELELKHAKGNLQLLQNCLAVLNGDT
UniProt O15270: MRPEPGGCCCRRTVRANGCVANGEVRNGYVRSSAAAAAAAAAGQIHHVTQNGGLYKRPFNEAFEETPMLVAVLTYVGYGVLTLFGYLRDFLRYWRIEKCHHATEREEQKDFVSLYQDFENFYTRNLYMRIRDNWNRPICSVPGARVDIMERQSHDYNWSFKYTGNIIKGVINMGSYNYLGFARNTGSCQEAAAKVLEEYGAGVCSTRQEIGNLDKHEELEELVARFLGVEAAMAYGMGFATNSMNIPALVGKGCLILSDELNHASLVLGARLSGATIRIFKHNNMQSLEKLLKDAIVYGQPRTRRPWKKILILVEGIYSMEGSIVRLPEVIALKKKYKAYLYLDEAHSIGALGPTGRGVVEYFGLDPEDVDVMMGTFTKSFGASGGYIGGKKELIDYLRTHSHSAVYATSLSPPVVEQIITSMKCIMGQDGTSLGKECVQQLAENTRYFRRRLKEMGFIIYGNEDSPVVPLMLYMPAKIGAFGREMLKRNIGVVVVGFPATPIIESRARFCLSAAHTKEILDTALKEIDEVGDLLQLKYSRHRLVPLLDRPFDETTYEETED
UniProt Q00796: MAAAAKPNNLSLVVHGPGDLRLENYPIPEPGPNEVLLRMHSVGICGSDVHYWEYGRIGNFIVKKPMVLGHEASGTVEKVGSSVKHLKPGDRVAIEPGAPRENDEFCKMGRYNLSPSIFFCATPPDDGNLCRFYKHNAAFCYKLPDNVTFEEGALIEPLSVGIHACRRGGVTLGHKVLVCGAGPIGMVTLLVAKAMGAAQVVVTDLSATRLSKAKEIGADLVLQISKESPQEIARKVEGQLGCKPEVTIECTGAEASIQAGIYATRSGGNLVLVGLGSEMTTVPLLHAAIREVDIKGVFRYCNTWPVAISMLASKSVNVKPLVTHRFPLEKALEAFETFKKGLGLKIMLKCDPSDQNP
UniProt P30626: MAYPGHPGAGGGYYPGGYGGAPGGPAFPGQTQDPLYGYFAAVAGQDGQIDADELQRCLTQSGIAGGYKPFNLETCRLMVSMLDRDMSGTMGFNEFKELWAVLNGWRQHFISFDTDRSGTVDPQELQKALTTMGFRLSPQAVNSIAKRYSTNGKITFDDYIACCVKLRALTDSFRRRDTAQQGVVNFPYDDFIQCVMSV
UniProt Q02447: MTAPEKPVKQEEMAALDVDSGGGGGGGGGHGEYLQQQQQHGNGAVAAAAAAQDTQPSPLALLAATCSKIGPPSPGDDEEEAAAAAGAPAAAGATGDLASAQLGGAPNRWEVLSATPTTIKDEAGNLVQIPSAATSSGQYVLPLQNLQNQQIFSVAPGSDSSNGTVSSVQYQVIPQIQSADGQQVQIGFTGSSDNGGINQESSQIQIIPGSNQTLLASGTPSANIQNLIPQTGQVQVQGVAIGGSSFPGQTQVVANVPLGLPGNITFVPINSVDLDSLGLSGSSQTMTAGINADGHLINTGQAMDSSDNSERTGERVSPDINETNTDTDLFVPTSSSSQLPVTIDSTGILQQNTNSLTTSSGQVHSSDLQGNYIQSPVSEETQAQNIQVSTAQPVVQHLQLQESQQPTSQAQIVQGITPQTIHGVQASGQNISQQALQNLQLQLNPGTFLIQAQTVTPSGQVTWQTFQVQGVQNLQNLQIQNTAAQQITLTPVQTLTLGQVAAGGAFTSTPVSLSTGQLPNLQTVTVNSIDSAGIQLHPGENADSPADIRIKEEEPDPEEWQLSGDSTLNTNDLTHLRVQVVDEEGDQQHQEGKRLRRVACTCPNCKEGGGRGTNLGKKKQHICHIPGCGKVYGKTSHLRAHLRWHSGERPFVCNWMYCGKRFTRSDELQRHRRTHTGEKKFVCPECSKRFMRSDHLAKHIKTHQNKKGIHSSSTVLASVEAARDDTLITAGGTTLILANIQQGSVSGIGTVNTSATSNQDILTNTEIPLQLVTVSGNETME
UniProt Q15005: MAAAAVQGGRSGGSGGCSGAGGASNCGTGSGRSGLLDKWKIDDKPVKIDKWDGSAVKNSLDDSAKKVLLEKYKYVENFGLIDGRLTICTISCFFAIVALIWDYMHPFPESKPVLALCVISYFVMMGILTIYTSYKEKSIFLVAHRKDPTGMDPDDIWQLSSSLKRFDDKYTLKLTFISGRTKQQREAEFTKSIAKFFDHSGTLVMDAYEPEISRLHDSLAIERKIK

Compound: CC1Cc2ccccc2N1C(=O)C1CCCN(C1)C(=O)CCl (mixture of isomers) [TRIM25 ligand 11 (diastereomer mixture)]
Experiment: probe-labelled cysteine peptide fold change vs DMSO (competition) (log2 fold change); higher = less target engagement (more negative = stronger competition)
Settings: THP-1, incubation time: 4 h
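Note: competitive chemoproteomic profiling in live THP-1 cells with an iodoacetamide desthiobiotin (IA-DTB) probe, comparing probe-labelled peptide intensities in compound-treated cells against DMSO-treated controls.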

Target	probe-labelled cysteine peptide fold change (10 µM)	probe-labelled cysteine peptide fold change (50 µM)
SPINDOC_Q9BUA3_12_AEGAALDCFEVTLK (UniProt Q9BUA3)	-0.242	-0.282
SNX5_Q9Y5X3_346+347_LAEAHQQECCQK (UniProt Q9Y5X3)	0.072	0.0319
SPTAN1_Q13813_1444_MMLDQCLELQLFHR (UniProt Q13813)	0.0765	0.0852
SRP72_O76094_323_ALLAMYTNQAEQCRK (UniProt O76094)	-0.297	-0.238
SNX3_O60493_140_CLHMFLQDEIIDKSYTPSKIRHA (UniProt O60493)	-0.0562	-0.0257
SPATA5_Q8NB90_291_CNFESAR (UniProt Q8NB90)	0.0109	-0.118
SNU13_P55769_102_ACGVSRPVIACSVTIK (UniProt P55769)	-0.00857	0.0527
SNX6_Q9UNH7_348_DVLQAETSQQLCCQK (UniProt Q9UNH7)	0.0919	0.129
SPTLC2_O15270_204_VLEEYGAGVCSTR (UniProt O15270)	0.143	0.101
SORD_Q00796_140_HNAAFCYK (UniProt Q00796)	-0.0352	0.0317
SRI_P30626_75_CLTQSGIAGGYKPFNLETCR (UniProt P30626)	0.0396	-0.0761
SP3_Q02447_686_KFVCPECSK (UniProt Q02447)	0.0384	0.0565
SNX27_Q96L92_432+434_TCEGYNEIIFPHCACDSR (UniProt Q96L92)	0.835	0.695
SPCS2_Q15005_17+26_SGGSGGCSGAGGASNCGTGSGR (UniProt Q15005)	-0.266	-0.603

Exported as comma-separated lines: part of the list above
Target,probe-labelled cysteine peptide fold change (10 µM),probe-labelled cysteine peptide fold change (50 µM)
SPTAN1_Q13813_1444_MMLDQCLELQLFHR (UniProt Q13813),0.0765,0.0852
SRP72_O76094_323_ALLAMYTNQAEQCRK (UniProt O76094),-0.297,-0.238
SNX3_O60493_140_CLHMFLQDEIIDKSYTPSKIRHA (UniProt O60493),-0.0562,-0.0257
